No constants are given. Whether binding was seen depends on the method and setting. In cells and extracts the contact can be indirect. Some binding calls cover weakened binding; strength is not graded here.

Sequences of proteins named here, by UniProt entry; tags and fusion partners are left off.
UniProt Q9C0K0: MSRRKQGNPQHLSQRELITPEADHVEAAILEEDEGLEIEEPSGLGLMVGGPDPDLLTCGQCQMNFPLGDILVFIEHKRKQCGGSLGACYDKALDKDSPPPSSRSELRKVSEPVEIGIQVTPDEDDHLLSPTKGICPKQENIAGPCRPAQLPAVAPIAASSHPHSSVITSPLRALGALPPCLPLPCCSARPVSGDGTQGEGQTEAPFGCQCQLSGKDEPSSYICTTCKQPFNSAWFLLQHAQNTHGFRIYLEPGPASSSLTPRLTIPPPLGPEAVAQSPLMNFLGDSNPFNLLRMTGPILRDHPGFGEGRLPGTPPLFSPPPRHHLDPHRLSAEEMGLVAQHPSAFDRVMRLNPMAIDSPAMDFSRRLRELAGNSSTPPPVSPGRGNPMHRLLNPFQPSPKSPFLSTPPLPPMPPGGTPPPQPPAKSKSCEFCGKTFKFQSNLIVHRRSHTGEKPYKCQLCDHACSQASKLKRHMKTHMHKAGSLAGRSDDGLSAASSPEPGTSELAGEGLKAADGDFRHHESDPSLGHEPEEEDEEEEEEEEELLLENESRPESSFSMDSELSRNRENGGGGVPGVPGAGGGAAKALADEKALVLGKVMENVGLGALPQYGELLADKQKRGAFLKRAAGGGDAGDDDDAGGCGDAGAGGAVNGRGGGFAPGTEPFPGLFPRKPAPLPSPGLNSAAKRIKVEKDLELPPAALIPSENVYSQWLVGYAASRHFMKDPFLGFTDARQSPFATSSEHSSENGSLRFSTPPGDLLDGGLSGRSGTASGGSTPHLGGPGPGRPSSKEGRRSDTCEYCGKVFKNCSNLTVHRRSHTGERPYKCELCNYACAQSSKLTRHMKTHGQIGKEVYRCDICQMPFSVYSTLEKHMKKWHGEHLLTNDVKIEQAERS

Results on two molecules are retold here after doi:10.1101/2020.11.05.369959.

In the experiment the target is Flag-BCL11b (B-cell lymphoma/leukemia 11B) (UniProt Q9C0K0). Put plainly: co-IP.

B1: Drosha (protein, UniProt Q9NRR4 1-1374)
chain: MMQGNTCHRMSFHPGRGCPRGRGGHGARPSAPSFRPQNLRLLHPQQPPVQYQYEPPSAPSTTFSNSPAPNFLPPRPDFVPFPPPMPPSAQGPLPPCPIRPPFPNHQMRHPFPVPPCFPPMPPPMPCPNNPPVPGAPPGQGTFPFMMPPPSMPHPPPPPVMPQQVNYQYPPGYSHHNFPPPSFNSFQNNPSSFLPSANNSSSPHFRHLPPYPLPKAPSERRSPERLKHYDDHRHRDHSHGRGERHRSLDRRERGRSPDRRRQDSRYRSDYDRGRTPSRHRSYERSRERERERHRHRDNRRSPSLERSYKKEYKRSGRSYGLSVVPEPAGCTPELPGEIIKNTDSWAPPLEIVNHRSPSREKKRARWEEEKDRWSDNQSSGKDKNYTSIKEKEPEETMPDKNEEEEEELLKPVWIRCTHSENYYSSDPMDQVGDSTVVGTSRLRDLYDKFEEELGSRQEKAKAARPPWEPPKTKLDEDLESSSESECESDEDSTCSSSSDSEVFDVIAEIKRKKAHPDRLHDELWYNDPGQMNDGPLCKCSAKARRTGIRHSIYPGEEAIKPCRPMTNNAGRLFHYRITVSPPTNFLTDRPTVIEYDDHEYIFEGFSMFAHAPLTNIPLCKVIRFNIDYTIHFIEEMMPENFCVKGLELFSLFLFRDILELYDWNLKGPLFEDSPPCCPRFHFMPRFVRFLPDGGKEVLSMHQILLYLLRCSKALVPEEEIANMLQWEELEWQKYAEECKGMIVTNPGTKPSSVRIDQLDREQFNPDVITFPIIVHFGIRPAQLSYAGDPQYQKLWKSYVKLRHLLANSPKVKQTDKQKLAQREEALQKIRQKNTMRREVTVELSSQGFWKTGIRSDVCQHAMMLPVLTHHIRYHQCLMHLDKLIGYTFQDRCLLQLAMTHPSHHLNFGMNPDHARNSLSNCGIRQPKYGDRKVHHMHMRKKGINTLINIMSRLGQDDPTPSRINHNERLEFLGDAVVEFLTSVHLYYLFPSLEEGGLATYRTAIVQNQHLAMLAKKLELDRFMLYAHGPDLCRESDLRHAMANCFEALIGAVYLEGSLEEAKQLFGRLLFNDPDLREVWLNYPLHPLQLQEPNTDRQLIETSPVLQKLTEFEEAIGVIFTHVRLLARAFTLRTVGFNHLTLGHNQRMEFLGDSIMQLVATEYLFIHFPDHHEGHLTLLRSSLVNNRTQAKVAEELGMQEYAITNDKTKRPVALRTKTLADLLESFIAALYIDKDLEYVHTFMNVCFFPRLKEFILNQDWNDPKSQLQQCCLTLRTEGKEPDIPLYKTLQTVGPSHARTYTVAVYFKGERIGCGKGPSIQQAEMGAAMDALEKYNFPQMAHQKRFIERKYRQELKEMRWEREHQEREPDETEDIKK
For the molecule B1, the binding entry was “binds”.

B2: UPF1 (protein, UniProt Q92900 1-1129)
chain: MSVEAYGPSSQTLTFLDTEEAELLGADTQGSEFEFTDFTLPSQTQTPPGGPGGPGGGGAGGPGGAGAGAAAGQLDAQVGPEGILQNGAVDDSVAKTSQLLAELNFEEDEEDTYYTKDLPIHACSYCGIHDPACVVYCNTSKKWFCNGRGNTSGSHIVNHLVRAKCKEVTLHKDGPLGETVLECYNCGCRNVFLLGFIPAKADSVVVLLCRQPCASQSSLKDINWDSSQWQPLIQDRCFLSWLVKIPSEQEQLRARQITAQQINKLEELWKENPSATLEDLEKPGVDEEPQHVLLRYEDAYQYQNIFGPLVKLEADYDKKLKESQTQDNITVRWDLGLNKKRIAYFTLPKTDSGNEDLVIIWLRDMRLMQGDEICLRYKGDLAPLWKGIGHVIKVPDNYGDEIAIELRSSVGAPVEVTHNFQVDFVWKSTSFDRMQSALKTFAVDETSVSGYIYHKLLGHEVEDVIIKCQLPKRFTAQGLPDLNHSQVYAVKTVLQRPLSLIQGPPGTGKTVTSATIVYHLARQGNGPVLVCAPSNIAVDQLTEKIHQTGLKVVRLCAKSREAIDSPVSFLALHNQIRNMDSMPELQKLQQLKDETGELSSADEKRYRALKRTAERELLMNADVICCTCVGAGDPRLAKMQFRSILIDESTQATEPECMVPVVLGAKQLILVGDHCQLGPVVMCKKAAKAGLSQSLFERLVVLGIRPIRLQVQYRMHPALSAFPSNIFYEGSLQNGVTAADRVKKGFDFQWPQPDKPMFFYVTQGQEEIASSGTSYLNRTEAANVEKITTKLLKAGAKPDQIGIITPYEGQRSYLVQYMQFSGSLHTKLYQEVEIASVDAFQGREKDFIILSCVRANEHQGIGFLNDPRRLNVALTRARYGVIIVGNPKALSKQPLWNHLLNYYKEQKVLVEGPLNNLRESLMQFSKPRKLVNTINPGARFMTTAMYDAREAIIPGSVYDRSSQGRPSSMYFQTHDQIGMISAGPSHVAAMNIPIPFNLVMPPMPPPGYFGQANGPAAGRGTPKGKTGRGGRQKNRFGLPGPSQTNLPNSQASQDVASQPFSQGALTQGYISMSQPSQMSQPGLSQPELSQDSYLGDEFKSQIDVALSQDSTYQGERAYQHGGVTGLSQY
With B2, the binding result is “binds”.
